Results are given in words; binding and its absence hold for the method and conditions named. For part of these data: Binding seen in cells or lysates may run through a third protein. Some binding calls cover weakened binding; strength is not graded here. One block for each molecule: values may come before it.
Experiments:
[1] = biological target: Halo-PAFR E178K (natural genetic variant) (human) (UniProt P25105); experiment: single-molecule photobleaching step analysis (TIRF microscopy); Halo-PAFR WT against the mutant Y151C-I154C or the variant E178K; density not told
[2] = biological target: Halo-PAFR E178K together with I186C^5.38 (human) (UniProt P25105); experiment: cross-linking; Cys cross-linking without CuP treatment; cell surface Halo-PAFR labelled with Halo-660; nonreducing SDS-PAGE
[3] = biological target: Halo-PAFR G147C^4.55 (human) (UniProt P25105); experiment: cross-linking; Cys cross-linking with CuP (1.5 mM Cu(II)-(o-phenanthroline), pH 8.0, 20 °C, 30 min) on living HEK-293 cells (parental or Δβarr1/2, with or without βarr1); cell surface Halo-PAFR labelled with Halo-660; nonreducing SDS-PAGE
[4] = biological target: Halo-PAFR I20C^1.37 (human) (UniProt P25105); experiment: as above
[5] = biological target: Halo-PAFR I20C^1.37-G147C^4.55 (human) (UniProt P25105); experiment: as above
[6] = biological target: Halo-PAFR I20C^1.37-I154C^4.62 (human) (UniProt P25105); experiment: as above
[7] = biological target: Halo-PAFR I20C^1.37-I186C^5.38 (human) (UniProt P25105); experiment: as above
[8] = biological target: Halo-PAFR I20C^1.37-L155C^4.63 (human) (UniProt P25105); experiment: as above
[9] = biological target: Halo-PAFR I20C^1.37-Y151C^4.59 (human) (UniProt P25105); experiment: as above
[10] = biological target: Halo-PAFR I154C^4.62 (human) (UniProt P25105); experiment: as above
[11] = biological target: Halo-PAFR I186C^5.38 (human) (UniProt P25105); experiment: as above
[12] = biological target: Halo-PAFR L155C^4.63 (human) (UniProt P25105); experiment: as above
[13] = biological target: Halo-PAFR Y151C^4.59 (human) (UniProt P25105); experiment: as above
[14] = biological target: Wild-type human PAFR fused at its C terminus to Venus (PAFR-Venus) or to Renilla luciferase 8 (PAFR-Rluc) (human) (UniProt P25105); experiment: FRET or BRET; BRET between GRK2-Rluc or GRK3-Rluc and PAFR-Venus co-transfected in cells, stimulation with PAF (1 μM)
[15] = biological target: PAFR-Venus E178K variant (human) (UniProt P25105); experiment: as above
[16] = biological target: PAFR-Venus Y151C^4.59-I154C^4.62 (human) (UniProt P25105); experiment: as above
[17] = biological target: SNAP-tagged PAFR WT (human) (UniProt P25105); experiment: FRET or BRET; TR-FRET between N-terminal SNAP-tags labelled with SNAP-Lumi4-Tb (100 nM) and SNAP-green (300 nM) at the surface of HEK-293 cells (βarr siRNA, or Δβarr1/2 cells with βarr1 plasmid)
[18] = biological target: Wild-type human PAFR fused at its C terminus to Venus (PAFR-Venus) or to Renilla luciferase 8 (PAFR-Rluc) (human) (UniProt P25105); experiment: FRET or BRET; competition BRET: PAFR-Rluc and PAFR-Venus with different amounts of co-expressed untagged receptors
[19] = biological target: Wild-type human PAFR fused at its C terminus to Venus (PAFR-Venus) or to Renilla luciferase 8 (PAFR-Rluc) (human) (UniProt P25105); experiment: FRET or BRET; BRET saturation: increasing amounts of Venus-tagged receptors with constant amounts of Rluc-tagged receptors in HEK293 cells, coelenterazine h 5 μM
[20] = biological target: Wild-type human PAFR fused at its C terminus to Venus (PAFR-Venus) or to Renilla luciferase 8 (PAFR-Rluc) (human) (UniProt P25105); experiment: FRET or BRET; BRET between PAFR-Rluc and PAFR-Venus in cells of the TM peptide experiment (control: pure DMSO)
[21] = biological target: Wild-type human PAFR fused at its C terminus to Venus (PAFR-Venus) or to Renilla luciferase 8 (PAFR-Rluc) (human) (UniProt P25105); experiment: FRET or BRET; BRET between βarr1-Rluc and PAFR-Venus co-transfected in cells, stimulation with PAF (1 μM)
[22] = biological target: Wild-type human PAFR fused at its C terminus to Venus (PAFR-Venus) or to Renilla luciferase 8 (PAFR-Rluc) (human) (UniProt P25105); experiment: FRET or BRET; BRET between PAFR-Rluc and PAFR-Venus in cells after 10 μM synthetic TM peptide, 37 °C, 2 h; peptide against receptor; only the binder purified

The chains behind the UniProt entries cited, without tags or fusion partners.
UniProt P25098: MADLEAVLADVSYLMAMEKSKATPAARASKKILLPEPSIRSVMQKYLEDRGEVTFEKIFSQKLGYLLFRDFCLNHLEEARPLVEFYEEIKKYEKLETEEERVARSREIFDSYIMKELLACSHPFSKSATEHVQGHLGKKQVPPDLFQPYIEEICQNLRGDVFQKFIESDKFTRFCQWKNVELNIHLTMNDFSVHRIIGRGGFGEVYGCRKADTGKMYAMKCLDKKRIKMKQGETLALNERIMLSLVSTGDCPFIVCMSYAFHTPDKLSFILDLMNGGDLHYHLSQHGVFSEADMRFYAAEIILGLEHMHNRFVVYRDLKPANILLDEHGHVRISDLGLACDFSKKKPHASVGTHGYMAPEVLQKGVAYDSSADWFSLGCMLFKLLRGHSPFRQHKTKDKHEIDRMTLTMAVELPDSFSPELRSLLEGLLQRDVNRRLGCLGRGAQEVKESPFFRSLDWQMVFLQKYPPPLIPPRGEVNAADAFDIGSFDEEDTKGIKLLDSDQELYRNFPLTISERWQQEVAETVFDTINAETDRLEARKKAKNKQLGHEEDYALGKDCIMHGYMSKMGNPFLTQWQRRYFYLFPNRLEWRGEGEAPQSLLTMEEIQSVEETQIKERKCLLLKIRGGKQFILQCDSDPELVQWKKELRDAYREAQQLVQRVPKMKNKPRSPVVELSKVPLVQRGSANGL
UniProt P35626: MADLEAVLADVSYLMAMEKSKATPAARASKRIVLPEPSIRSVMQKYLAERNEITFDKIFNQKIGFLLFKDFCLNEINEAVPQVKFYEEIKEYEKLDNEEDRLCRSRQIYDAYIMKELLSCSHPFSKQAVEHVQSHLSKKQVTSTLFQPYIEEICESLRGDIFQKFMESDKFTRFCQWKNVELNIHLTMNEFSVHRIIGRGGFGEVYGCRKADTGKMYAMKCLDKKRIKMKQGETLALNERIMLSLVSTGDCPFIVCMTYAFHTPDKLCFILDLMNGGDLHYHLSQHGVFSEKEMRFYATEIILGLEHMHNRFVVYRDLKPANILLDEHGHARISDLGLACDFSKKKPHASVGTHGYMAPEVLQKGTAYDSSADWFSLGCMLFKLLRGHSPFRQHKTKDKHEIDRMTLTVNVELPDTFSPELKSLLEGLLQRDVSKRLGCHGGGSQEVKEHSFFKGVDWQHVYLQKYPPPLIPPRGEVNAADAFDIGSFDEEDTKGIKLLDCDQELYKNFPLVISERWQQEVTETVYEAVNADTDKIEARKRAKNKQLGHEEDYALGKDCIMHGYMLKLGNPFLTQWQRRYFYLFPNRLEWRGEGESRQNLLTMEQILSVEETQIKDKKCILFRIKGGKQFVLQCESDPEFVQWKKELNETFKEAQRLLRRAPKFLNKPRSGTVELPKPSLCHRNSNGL

Molecule: Halo-PAFR E178K together with I186C^5.38 (from UniProt P25105 1-342) (receptor)
binding [2]: binds

Molecule: Halo-PAFR G147C^4.55 (from UniProt P25105 1-342) (receptor)
binding [3]: binds

Molecule: Halo-PAFR I20C^1.37-I186C^5.38 (from UniProt P25105 1-342) (receptor)
binding [7]: binds

Molecule: Halo-PAFR I154C^4.62 (from UniProt P25105 1-342) (receptor)
binding [10]: binds

Molecule: Halo-PAFR L155C^4.63 (from UniProt P25105 1-342) (receptor)
binding [12]: binds

Molecule: Halo-PAFR Y151C^4.59 (from UniProt P25105 1-342) (receptor)
binding [13]: binds

Molecule: SNAP-tagged PAFR WT (from UniProt P25105 1-342) (receptor)
binding [17]: binds

Molecule: Untagged PAFR (without Rluc or Venus tags) (from UniProt P25105 1-342) (receptor)
binding [18]: binds

Molecule: Wild-type human PAFR fused at its C terminus to Venus (PAFR-Venus) or to Renilla luciferase 8 (PAFR-Rluc) (from UniProt P25105 1-342) (receptor)
binding [19]: binds
binding [18]: binds
binding [20]: binds

Molecule: βarr1-3D mutant (L335D, L338D, S340D) tagged with Rluc (from UniProt P49407 1-418)
binding [21]: no binding

Continued, values first:

binding [1]: binds
Molecule: Halo-PAFR E178K (natural genetic variant) (from UniProt P25105 1-342) (receptor)

binding [4]: binds
Molecule: Halo-PAFR I20C^1.37 (from UniProt P25105 1-342) (receptor)

binding [5]: binds
Molecule: Halo-PAFR I20C^1.37-G147C^4.55 (from UniProt P25105 1-342) (receptor)

binding [6]: binds
Molecule: Halo-PAFR I20C^1.37-I154C^4.62 (from UniProt P25105 1-342) (receptor)

binding [8]: binds
Molecule: Halo-PAFR I20C^1.37-L155C^4.63 (from UniProt P25105 1-342) (receptor)

binding [9]: binds
Molecule: Halo-PAFR I20C^1.37-Y151C^4.59 (from UniProt P25105 1-342) (receptor)

binding [11]: binds
Molecule: Halo-PAFR I186C^5.38 (from UniProt P25105 1-342) (receptor)

binding [14]: binds
binding [15]: binds
binding [16]: binds
Molecule: Human GRK2 fused to Renilla luciferase (from UniProt P25098 1-689) (enzyme)

binding [14]: binds
binding [15]: binds
binding [16]: binds
Molecule: Human GRK3 fused to Renilla luciferase (from UniProt P35626 1-688) (enzyme)

binding [22]: binds
Molecule: KKKVLIIHIFIVFSFFLVFLIILFCNLVIKKK [TM5 peptide of human PAFR (residues 184-209) with KKK at both ends]

binding [22]: binds
Molecule: KKKTRKRGISLSLVIWVAIVGAASYFLILDKKK [TM4 peptide of human PAFR (residues 130-156) with KKK at both ends]

binding [21]: binds
B1: Human β-arrestin1 tagged with Rluc (natural protein, UniProt P49407 1-418, looked up)
chain: MGDKGTRVFKKASPNGKLTVYLGKRDFVDHIDLVDPVDGVVLVDPEYLKERRVYVTLTCAFRYGREDLDVLGLTFRKDLFVANVQSFPPAPEDKKPLTRLQERLIKKLGEHAYPFTFEIPPNLPCSVTLQPGPEDTGKACGVDYEVKAFCAENLEEKIHKRNSVRLVIRKVQYAPERPGPQPTAETTRQFLMSDKPLHLEASLDKEIYYHGEPISVNVHVTNNTNKTVKKIKISVRQYADICLFNTAQYKCPVAMEEADDTVAPSSTFCKVYTLTPFLANNREKRGLALDGKLKHEDTNLASSTLLREGANREILGIIVSYKVKVKLVVSRGGLLGDLASSDVAVELPFTLMHPKPKEEPPHREVPENETPVDTNLIELDTNDDDIVFEDFARQRLKGMKDDKEEEEDGTGSPQLNNR

binding [22]: binds
Molecule: KKKAINDAHQVTLCLLSTNCVLDPVIYCFLKKK [TM7 peptide of human PAFR (residues 270-296) with KKK at both ends]

binding [22]: binds
Molecule: KKKYTLFPIVYSIIFVLGVIANGYVLWVFAKKK [TM1 peptide of human PAFR (residues 15-41) with KKK at both ends]
